Source: paper PMC9682468
Substitutions are numbered along the chain they refer to. No constants are given. Whether binding was seen depends on the method and setting. Binding seen in cells or lysates may run through a third protein. Some results given as binding are weak or reduced against the parent protein; the word gives no strength. Sequences can lack the tags named with a protein.

Amino acid sequences for entries named in this document (tags omitted).
UniProt Q64310: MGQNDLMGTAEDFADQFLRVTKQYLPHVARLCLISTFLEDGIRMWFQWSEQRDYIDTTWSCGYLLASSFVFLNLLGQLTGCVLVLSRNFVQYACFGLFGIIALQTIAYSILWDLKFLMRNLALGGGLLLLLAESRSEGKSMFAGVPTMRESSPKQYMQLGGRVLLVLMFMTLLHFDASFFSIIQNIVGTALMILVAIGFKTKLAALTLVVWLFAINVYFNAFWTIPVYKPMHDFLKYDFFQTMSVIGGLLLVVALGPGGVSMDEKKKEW

How the values were obtained:
Assay in all cases: co-IP; HEK293T cells transfected with the tagged constructs, no cGAMP stimulation; FLAG-STING precipitated with anti-DYKDDDDK (FLAG) beads, 1 h or overnight at 4°C; 50 mM HEPES-NaOH pH 7.2, 150 mM NaCl, 5 mM EDTA, 1% Triton X-100 or 1% CHAPS; western blot
[1] = target: T1, mouse STING (SAVI) V154M, EGFP-tagged and FLAG-tagged copies, in HEK293T cells (mouse) (UniProt Q3TBT3)
T1 sequence: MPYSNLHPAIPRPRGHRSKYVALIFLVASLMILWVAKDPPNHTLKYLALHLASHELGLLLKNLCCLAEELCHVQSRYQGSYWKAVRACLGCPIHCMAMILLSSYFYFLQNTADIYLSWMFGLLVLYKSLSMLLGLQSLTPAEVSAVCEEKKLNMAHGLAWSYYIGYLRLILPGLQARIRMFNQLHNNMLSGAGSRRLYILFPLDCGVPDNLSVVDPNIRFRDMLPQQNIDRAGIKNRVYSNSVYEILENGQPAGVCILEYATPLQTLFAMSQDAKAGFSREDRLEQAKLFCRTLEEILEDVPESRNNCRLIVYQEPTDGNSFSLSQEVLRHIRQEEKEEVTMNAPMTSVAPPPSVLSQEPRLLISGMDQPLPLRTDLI

[2] = target: T2, mouse STING (SAVI) V146L, EGFP-tagged and FLAG-tagged copies, in HEK293T cells (mouse) (UniProt Q3TBT3)
T2 sequence: T1 sequence with V146L, M154V

[3] = target: T3, mouse STING (WT), FLAG-tagged and EGFP-tagged copies, in HEK293T cells (mouse) (UniProt Q3TBT3)
T3 sequence: T1 sequence with M154V

[4] = target: T4, mouse STING (SAVI) N153S, EGFP-tagged and FLAG-tagged copies, in HEK293T cells (mouse) (UniProt Q3TBT3)
T4 sequence: T1 sequence with N153S, M154V

Measured: binding

mouse Surf4, N-terminal HA-tagged construct (from UniProt Q64310 1-269)
binds: all assays above
